{"source": "patent US20200148767A1", "binders": {"B1": {"name": "anti-CD33 antibody 11D5 (antibody, V domains shown)", "VH": "EVQFQQSETVLARPGTSVKLSCKASGYTFTSYWMHWLKQRPGQGLEWIGAIYCGNSDTSYNQKFKGKAKLTAVTSATTAYMELSSLTNEDSAVYYCKIYDGYHFDYWGQGTTLTVSS", "VL": "DIVMTQAAFSNPVTLGTSASISCRSNKSLLHSNGITYLYWYLQKPGQSPQLLIYQMSNLASGVPDRFSSSGSGTDFTLRISRVEAEDVGVYYCAQNLELPPTFGGGTKLEIKR"}, "B2": {"name": "anti-CD33 antibody 12B12 (antibody, V domains shown)", "VH": "EVQLQQSGTVLARPGASVKMSCKASGYTFTTYWMHWIKQSPGQGLEWIGAIYPGNSDTSYNQKFKGKAKLTAVTSASTAYMELSSLTNEDSAVYYCEIYDGYHFIYWGQGTTLTVSS", "VL": "B1 VL with N26S, K27Q"}, "B3": {"name": "anti-CD33 antibody 1H7 (antibody, mouse IgG2a, kappa, V domains shown)", "VH": "QVQLQQSGAELVKPGASVKISCKASGYAFSNYWMNWVKQRPGKGLEWIGQINPGDGDTNYNGKFKGKATLTADKSSSTAYMQLSSLTSEDSAVYFCAREDRDYFDYWGQGTTLTVSS", "VL": "DIQMTQTTSSLSASLGDRVTISCRASQDINYYLNWYQQKPDGTVKLLIYYSSRLHSGVPSRFSGSGSGTDFSLTISNLEQEDIATYFCQQDDALPYTFGGGTKLEIKR"}}, "key": {"[1]": {"target": "hybrid protein: signal peptide of CD33^FL fused to CD33^ΔE2 (FL SP on CD33^ΔE2) (human)", "test": "binding to REH cells expressing hybrid CD33 proteins"}, "[2]": {"target": "hybrid protein: signal peptide of CD33^FL fused to CD33^ΔE2 (FL SP on CD33^ΔE2) (human)", "test": "flow cytometry on REH cells expressing FL SP on CD33ΔE2, goat anti-mouse APC secondary antibody"}, "[3]": {"target": "extracellular domain of CD33^ΔE2 with a 6-histidine-avidin tag (hsCD33_ΔE2-His-Avi) (human)", "test": "SPR (Biacore), antibody captured, soluble ectodomain MDT-239 as analyte"}, "[4]": {"target": "CD33^ΔE3-4, artificial CD33 molecule that contains only the V-set domain", "test": "binding to cells displaying CD33^ΔE3-4"}}, "note": "Positions count from the first letter of the chain named. These are yes or no findings as the source states them, for the method shown. For some of these results: Binding calls can cover weak binding; strength is not graded here.", "data": [{"binder": "B1", "values": [{"measurement": "binding", "setting": "[1]", "result": "binds"}, {"measurement": "binding", "setting": "[2]", "result": "binds"}]}, {"binder": "B2", "values": [{"measurement": "binding", "setting": "[3]", "result": "binds"}]}, {"binder": "B3", "values": [{"measurement": "binding", "setting": "[4]", "result": "no binding"}]}]}
